Literature values in patent US10632087B2, “Famciclovir and meloxicam combination therapy for functional somatic syndromes” (INNOVATIVE MED CONCEPTS, LLC., priority 2012, dated 2020).
For at least one compound, name, drawing or mass did not settle the structure.

Test system: herpes viral reactivation in the nervous system of mice

Cc1ccc(-c2cc(C(F)(F)F)nn2-c2ccc(S(N)(=O)=O)cc2)cc1 [celecoxib]
suppression of hyperthermic stress-induced herpes viral reactivation: can suppress
